Experimental data as given in the supplement of paper PMC10849652.
This is one part of the list.

Chains of the proteins cited; added tags and fusions are not shown. Lines headed by an entry give the natural chain unless they say otherwise; changes in a name come on top.
UniProt Q6ICL3: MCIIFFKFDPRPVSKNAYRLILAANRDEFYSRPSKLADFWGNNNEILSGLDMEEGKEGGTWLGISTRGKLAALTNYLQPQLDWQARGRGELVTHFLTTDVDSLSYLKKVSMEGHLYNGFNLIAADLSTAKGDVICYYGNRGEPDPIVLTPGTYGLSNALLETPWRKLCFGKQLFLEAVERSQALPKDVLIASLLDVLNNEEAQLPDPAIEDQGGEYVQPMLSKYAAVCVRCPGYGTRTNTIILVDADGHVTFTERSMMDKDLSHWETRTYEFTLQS
UniProt O14662: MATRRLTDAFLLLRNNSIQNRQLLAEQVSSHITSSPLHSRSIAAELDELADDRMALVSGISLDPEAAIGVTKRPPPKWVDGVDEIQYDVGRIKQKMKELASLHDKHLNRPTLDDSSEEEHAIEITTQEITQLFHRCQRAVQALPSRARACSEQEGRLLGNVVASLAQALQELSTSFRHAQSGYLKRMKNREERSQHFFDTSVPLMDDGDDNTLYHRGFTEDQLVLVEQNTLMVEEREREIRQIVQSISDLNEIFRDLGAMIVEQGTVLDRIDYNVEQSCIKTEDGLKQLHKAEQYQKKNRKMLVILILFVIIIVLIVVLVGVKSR
UniProt P26639: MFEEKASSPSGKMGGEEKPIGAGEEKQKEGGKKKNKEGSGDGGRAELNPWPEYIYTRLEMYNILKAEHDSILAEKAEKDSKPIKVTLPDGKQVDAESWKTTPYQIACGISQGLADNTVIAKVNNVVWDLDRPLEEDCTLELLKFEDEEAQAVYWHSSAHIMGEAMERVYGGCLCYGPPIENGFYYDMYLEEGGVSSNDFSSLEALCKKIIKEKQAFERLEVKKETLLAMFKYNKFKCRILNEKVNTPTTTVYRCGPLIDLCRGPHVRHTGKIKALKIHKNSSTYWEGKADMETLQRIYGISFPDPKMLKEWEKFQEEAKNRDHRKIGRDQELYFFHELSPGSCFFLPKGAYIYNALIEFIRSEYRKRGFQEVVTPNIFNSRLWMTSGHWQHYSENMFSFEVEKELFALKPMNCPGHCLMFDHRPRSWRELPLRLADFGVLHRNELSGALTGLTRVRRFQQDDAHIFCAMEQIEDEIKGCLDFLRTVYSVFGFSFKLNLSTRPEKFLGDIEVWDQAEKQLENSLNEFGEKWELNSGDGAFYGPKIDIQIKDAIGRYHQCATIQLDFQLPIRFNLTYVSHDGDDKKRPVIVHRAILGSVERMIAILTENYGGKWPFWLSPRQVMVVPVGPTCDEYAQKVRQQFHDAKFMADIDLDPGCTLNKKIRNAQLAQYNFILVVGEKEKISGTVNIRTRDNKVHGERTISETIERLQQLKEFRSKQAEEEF
UniProt O15260: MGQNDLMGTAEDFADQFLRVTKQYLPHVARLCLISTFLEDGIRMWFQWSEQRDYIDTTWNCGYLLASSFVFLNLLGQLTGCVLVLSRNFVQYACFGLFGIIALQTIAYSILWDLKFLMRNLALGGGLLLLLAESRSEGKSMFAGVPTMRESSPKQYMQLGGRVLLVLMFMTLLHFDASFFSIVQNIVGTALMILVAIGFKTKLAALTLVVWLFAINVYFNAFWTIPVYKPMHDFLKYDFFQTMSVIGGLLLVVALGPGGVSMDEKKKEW
UniProt Q6P1N9: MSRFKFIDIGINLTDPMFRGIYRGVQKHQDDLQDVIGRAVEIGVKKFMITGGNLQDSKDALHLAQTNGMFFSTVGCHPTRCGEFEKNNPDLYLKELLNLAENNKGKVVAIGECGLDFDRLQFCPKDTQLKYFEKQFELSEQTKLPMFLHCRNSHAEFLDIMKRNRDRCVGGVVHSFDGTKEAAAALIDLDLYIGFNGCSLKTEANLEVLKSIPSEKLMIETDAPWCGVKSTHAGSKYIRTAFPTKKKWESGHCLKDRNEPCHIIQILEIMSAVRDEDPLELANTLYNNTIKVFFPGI
UniProt Q16563: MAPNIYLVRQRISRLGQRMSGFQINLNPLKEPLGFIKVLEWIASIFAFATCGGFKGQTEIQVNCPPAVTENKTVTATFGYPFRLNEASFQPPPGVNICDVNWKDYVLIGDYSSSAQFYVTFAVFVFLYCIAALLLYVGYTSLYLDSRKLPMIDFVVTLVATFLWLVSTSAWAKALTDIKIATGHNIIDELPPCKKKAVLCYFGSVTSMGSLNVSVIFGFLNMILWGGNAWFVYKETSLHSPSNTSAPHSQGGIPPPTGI
UniProt O43426, whole entry, looked up: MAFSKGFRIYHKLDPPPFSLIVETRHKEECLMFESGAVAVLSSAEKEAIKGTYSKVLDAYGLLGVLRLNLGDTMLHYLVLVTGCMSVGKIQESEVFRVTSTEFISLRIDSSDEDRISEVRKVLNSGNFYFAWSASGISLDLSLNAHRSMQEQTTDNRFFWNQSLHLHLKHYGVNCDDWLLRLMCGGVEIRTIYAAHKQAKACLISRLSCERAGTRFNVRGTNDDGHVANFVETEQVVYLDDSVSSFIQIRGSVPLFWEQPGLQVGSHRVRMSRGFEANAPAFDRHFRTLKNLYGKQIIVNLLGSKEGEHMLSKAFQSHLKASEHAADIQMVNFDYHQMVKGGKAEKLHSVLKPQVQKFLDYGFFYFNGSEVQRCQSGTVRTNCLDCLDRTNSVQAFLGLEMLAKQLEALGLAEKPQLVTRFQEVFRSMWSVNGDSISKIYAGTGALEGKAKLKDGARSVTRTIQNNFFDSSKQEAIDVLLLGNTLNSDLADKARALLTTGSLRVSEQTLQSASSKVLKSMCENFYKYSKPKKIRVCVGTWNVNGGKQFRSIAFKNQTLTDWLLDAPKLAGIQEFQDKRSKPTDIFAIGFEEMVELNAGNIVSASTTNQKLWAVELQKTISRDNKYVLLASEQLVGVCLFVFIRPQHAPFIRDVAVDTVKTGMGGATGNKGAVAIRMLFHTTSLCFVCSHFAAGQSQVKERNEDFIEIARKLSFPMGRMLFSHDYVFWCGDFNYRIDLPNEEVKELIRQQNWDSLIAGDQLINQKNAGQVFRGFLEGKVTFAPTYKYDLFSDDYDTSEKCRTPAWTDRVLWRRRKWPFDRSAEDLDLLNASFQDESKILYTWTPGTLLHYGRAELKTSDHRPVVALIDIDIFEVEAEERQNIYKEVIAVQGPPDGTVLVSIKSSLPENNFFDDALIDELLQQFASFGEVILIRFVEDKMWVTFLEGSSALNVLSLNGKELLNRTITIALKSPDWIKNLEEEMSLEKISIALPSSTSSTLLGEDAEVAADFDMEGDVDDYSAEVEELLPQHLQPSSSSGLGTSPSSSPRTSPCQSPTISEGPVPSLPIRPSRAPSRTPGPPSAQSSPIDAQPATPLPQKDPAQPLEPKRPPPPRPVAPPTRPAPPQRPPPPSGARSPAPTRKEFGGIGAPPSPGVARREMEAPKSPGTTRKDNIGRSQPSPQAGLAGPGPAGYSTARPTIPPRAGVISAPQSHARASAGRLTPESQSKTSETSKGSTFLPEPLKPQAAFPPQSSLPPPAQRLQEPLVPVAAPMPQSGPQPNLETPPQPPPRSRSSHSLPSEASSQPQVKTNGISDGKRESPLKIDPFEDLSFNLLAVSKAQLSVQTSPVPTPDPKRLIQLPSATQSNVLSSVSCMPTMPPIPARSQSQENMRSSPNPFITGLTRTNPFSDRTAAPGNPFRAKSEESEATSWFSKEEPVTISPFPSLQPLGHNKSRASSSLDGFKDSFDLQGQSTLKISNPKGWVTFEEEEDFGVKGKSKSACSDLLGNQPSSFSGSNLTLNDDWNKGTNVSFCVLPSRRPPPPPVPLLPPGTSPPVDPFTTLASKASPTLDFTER
UniProt O75528: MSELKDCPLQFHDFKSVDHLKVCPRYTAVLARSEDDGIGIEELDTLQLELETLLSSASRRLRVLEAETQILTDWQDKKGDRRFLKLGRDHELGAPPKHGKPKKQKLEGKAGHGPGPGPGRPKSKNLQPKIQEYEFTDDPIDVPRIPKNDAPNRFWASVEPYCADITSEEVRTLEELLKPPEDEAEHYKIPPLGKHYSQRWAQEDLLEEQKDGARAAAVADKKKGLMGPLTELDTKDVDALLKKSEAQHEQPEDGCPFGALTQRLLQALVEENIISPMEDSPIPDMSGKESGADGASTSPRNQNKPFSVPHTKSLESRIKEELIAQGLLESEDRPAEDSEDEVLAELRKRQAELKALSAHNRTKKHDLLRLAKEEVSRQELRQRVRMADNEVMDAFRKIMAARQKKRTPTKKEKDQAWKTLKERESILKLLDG
UniProt Q9NZ72: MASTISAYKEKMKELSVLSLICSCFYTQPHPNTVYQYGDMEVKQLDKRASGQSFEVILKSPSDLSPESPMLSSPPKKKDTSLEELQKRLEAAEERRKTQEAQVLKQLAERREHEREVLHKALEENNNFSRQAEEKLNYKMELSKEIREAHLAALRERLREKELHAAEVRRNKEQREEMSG
UniProt O43752: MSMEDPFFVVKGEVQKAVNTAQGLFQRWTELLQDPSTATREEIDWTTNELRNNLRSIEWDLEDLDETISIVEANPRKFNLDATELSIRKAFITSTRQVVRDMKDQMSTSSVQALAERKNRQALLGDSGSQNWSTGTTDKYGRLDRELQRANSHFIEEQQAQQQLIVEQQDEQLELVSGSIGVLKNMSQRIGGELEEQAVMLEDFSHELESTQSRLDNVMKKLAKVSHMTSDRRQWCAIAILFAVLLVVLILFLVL
UniProt P55854, whole entry, looked up: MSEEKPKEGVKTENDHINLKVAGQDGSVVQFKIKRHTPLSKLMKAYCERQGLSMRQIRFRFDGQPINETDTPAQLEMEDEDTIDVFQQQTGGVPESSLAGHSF
UniProt Q9UMZ2: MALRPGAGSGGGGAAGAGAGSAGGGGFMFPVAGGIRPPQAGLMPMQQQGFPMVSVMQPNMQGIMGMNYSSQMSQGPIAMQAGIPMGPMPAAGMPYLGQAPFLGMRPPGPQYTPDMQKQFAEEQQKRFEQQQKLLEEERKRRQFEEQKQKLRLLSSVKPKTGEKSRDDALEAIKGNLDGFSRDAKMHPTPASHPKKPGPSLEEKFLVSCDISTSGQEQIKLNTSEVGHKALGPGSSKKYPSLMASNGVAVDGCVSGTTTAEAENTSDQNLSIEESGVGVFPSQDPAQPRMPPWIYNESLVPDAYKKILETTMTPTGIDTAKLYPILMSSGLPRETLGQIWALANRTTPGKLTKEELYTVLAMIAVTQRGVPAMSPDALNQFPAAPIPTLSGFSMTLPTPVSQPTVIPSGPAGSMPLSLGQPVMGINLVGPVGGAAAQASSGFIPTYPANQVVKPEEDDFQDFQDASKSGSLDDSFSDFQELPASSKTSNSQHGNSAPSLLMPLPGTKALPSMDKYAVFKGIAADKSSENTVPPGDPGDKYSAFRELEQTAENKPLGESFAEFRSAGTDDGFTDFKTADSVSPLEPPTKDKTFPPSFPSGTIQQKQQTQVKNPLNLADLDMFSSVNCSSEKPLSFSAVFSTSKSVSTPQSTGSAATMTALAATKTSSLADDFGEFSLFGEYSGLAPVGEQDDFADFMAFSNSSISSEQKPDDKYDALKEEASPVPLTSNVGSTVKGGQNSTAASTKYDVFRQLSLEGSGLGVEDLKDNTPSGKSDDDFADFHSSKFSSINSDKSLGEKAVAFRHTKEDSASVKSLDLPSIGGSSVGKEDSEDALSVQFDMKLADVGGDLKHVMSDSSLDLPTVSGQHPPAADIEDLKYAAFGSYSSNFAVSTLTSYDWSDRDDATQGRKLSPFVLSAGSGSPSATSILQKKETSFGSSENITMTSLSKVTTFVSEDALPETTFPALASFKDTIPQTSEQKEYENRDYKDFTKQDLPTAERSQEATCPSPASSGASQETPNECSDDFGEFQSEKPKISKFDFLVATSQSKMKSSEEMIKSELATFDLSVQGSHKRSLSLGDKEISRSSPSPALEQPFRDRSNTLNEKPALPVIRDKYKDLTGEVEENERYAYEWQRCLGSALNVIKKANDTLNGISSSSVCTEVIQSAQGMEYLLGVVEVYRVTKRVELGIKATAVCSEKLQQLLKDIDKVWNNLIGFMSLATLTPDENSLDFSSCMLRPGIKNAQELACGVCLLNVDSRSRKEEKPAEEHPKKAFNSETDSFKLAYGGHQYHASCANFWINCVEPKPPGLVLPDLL
UniProt P37802: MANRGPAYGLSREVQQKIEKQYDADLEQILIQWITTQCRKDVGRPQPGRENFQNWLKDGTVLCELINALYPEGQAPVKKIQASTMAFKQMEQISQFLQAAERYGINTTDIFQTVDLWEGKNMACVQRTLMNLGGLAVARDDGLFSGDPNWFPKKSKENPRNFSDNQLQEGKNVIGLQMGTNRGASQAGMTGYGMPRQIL

Tests used:
Assay in all cases: log2 fold change, soluble protein after heating vs DMSO (PISA); higher = thermal stabilisation; K562 cells, 10 uM, 30 min; active = over 0.2 and 3.5 SD of the protein, either way, in both replicates (recomputed)
[1] = compound: CS(=O)(=O)c1ccc(-c2cnc(N)c(C(=O)Nc3ccccc3)n2)cc1
In short: (§1)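 Soluble protein was defined as the supernatant after 21,000xg for 90 min. It came from K562 cells at 2×10^6 cells/mL given 10 μM compound for 30 min, heated in aliquots for 3 min across 48°C-58°C, pooled, and extracted in PBS with 0.5% NP-40 at 4°C, and was quantified by TMTpro 16plex LC-MS/MS with equalised channel sums. Thermal stability against control samples, from duplicates, is reported as log2 fold change.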

crizotinib = compound: C[C@@H](Oc1cc(-c2cnn(C3CCNCC3)c2)cnc1N)c1c(Cl)ccc(F)c1Cl [crizotinib]
In short: as §1

[2] = compound: C[C@@H]1COCCN1C2=NC(=NC(=C2)C3(CC3)S(=O)(=O)C)C4=C5C=CNC5=CC=C4
In short: as §1

[3] = compound: C[C@H](C1=CC=C(C=C1)C(=O)NC2=C3C=CNC3=NC=C2)N
In short: as §1

duvelisib = compound: C[C@H](Nc1ncnc2nc[nH]c12)c1cc2cccc(Cl)c2c(=O)n1-c1ccccc1 [duvelisib]
In short: as §1

gandotinib = compound: Cc1cc(Nc2cc(CN3CCOCC3)c3nc(C)c(Cc4ccc(Cl)cc4F)n3n2)n[nH]1 [gandotinib]
In short: as §1

tozasertib = compound: Cc1cc(Nc2cc(N3CCN(C)CC3)nc(Sc3ccc(NC(=O)C4CC4)cc3)n2)n[nH]1 [tozasertib]
In short: as §1

[4] = compound: Cc1cc(SCc2sc(-c3ccc(C(F)(F)F)cc3)nc2C)ccc1OCC(=O)O
In short: as §1

doramapimod = compound: Cc1ccc(-n2nc(C(C)(C)C)cc2NC(=O)Nc2ccc(OCCN3CCOCC3)c3ccccc23)cc1 [doramapimod]
In short: as §1

ispinesib = compound: Cc1ccc(C(=O)N(CCCN)[C@@H](c2nc3cc(Cl)ccc3c(=O)n2Cc2ccccc2)C(C)C)cc1 [ispinesib]
In short: as §1

bafetinib = compound: Cc1ccc(NC(=O)c2ccc(CN3CC[C@H](N(C)C)C3)c(C(F)(F)F)c2)cc1Nc1nccc(-c2cncnc2)n1 [bafetinib]
In short: as §1

[5] = compound: Cc1cccc(CC(=O)N2CCc3c2ccc(-c2cn(C)c4ncnc(N)c24)c3F)n1
In short: as §1

nilotinib = compound: Cc1cn(-c2cc(NC(=O)c3ccc(C)c(Nc4nccc(-c5cccnc5)n4)c3)cc(C(F)(F)F)c2)cn1 [nilotinib]
In short: as §1

[6] = compound: Cc1nc(Nc2n[nH]c3c2CN(C(=O)N[C@H](CN(C)C)c2ccccc2)C3(C)C)c2sccc2n1
In short: as §1

dasatinib = compound: Cc1nc(Nc2ncc(C(=O)Nc3c(C)cccc3Cl)s2)cc(N2CCN(CCO)CC2)n1 [dasatinib]
In short: as §1

[7] = compound: Cc1ncc(-c2ccnc(Nc3ccc(S(C)(=O)=O)cc3)n2)n1C(C)C
In short: as §1

[8] = compound: Cn1cc(-c2ccc3c(c2)CCN3C(=O)Cc2cccc(C(F)(F)F)c2)c2c(N)ncnc21
In short: as §1

[9] = compound: Cn1cc(-c2ccc3nnc(C(F)(F)c4ccc5ncccc5c4)n3n2)cn1
In short: as §1

tipifarnib = compound: Cn1cncc1[C@@](N)(c1ccc(Cl)cc1)c1ccc2c(c1)c(-c1cccc(Cl)c1)cc(=O)n2C [tipifarnib]
In short: as §1

mubritinib = compound: FC(F)(F)c1ccc(/C=C/c2nc(COc3ccc(CCCCn4ccnn4)cc3)co2)cc1 [mubritinib]
In short: as §1

Measured: log2 fold change

TANGO2 isoform 4 (UniProt Q6ICL3)
inactive: [1] 0.052 | crizotinib 0.02 | [2] 0.107 | [3] -0.059 | duvelisib 0.029 | gandotinib -0.015 | tozasertib 0.012 | [4] 0.052 | doramapimod 0.017 | ispinesib 0.055 | bafetinib -0.124 | [5] 0.016 | nilotinib -0.026 | [6] -0.004 | dasatinib -0.025 | [7] -0.052 | [8] 0.074 | [9] 0.023 | tipifarnib 0.009 | mubritinib 0.07

STX16 isoform 2 (UniProt O14662)
inactive: [1] 0.029 | crizotinib -0.052 | [2] 0.006 | [3] 0.04 | duvelisib 0.057 | gandotinib -0.02 | tozasertib -0.09 | [4] 0.021 | doramapimod -0.102 | ispinesib -0.055 | bafetinib 0.042 | [5] 0.058 | nilotinib -0.057 | [6] -0.056 | dasatinib -0.064 | [7] -0.023 | [8] 0.049 | [9] 0.007 | tipifarnib 0.041 | mubritinib 0.114

TARS1 (UniProt P26639)
inactive: [1] 0.039 | crizotinib -0.147 | [2] 0.087 | [3] -0.032 | duvelisib -0.015 | gandotinib -0.064 | tozasertib -0.026 | [4] 0.054 | doramapimod -0.007 | ispinesib -0.12 | bafetinib -0.024 | [5] 0.097 | nilotinib -0.006 | [6] -0.028 | dasatinib -0.065 | [7] -0.038 | [8] 0.062 | [9] 0.024 | tipifarnib -0.095 | mubritinib 0.078

SURF4 (UniProt O15260)
inactive: [1] -0.005 | crizotinib 0.055 | [2] -0.028 | [3] -0.06 | duvelisib 0.072 | gandotinib 0.012 | tozasertib -0.01 | [4] -0.038 | doramapimod 0.048 | ispinesib -0.023 | bafetinib 0.01 | [5] -0.001 | nilotinib -0.008 | [6] 0.023 | dasatinib -0.003 | [7] -0.009 | [8] 0.006 | [9] 0.057 | tipifarnib 0.048 | mubritinib 0.015

TATDN1 (UniProt Q6P1N9)
inactive: [1] 0.048 | crizotinib -0.003 | [2] -0.115 | [3] -0.031 | duvelisib 0.02 | gandotinib 0.029 | tozasertib -0.061 | [4] -0.063 | doramapimod 0.042 | ispinesib 0.003 | bafetinib -0.06 | [5] -0.005 | nilotinib 0.028 | [6] -0.033 | dasatinib 0.106 | [7] -0.01 | [8] -0.031 | [9] 0.042 | tipifarnib 0.063 | mubritinib 0.074

SYPL1 (UniProt Q16563)
inactive: [1] 0.064 | crizotinib 0.072 | [2] 0.054 | [3] -0.056 | duvelisib 0.073 | gandotinib 0.266 | tozasertib -0.034 | [4] -0.026 | doramapimod -0.002 | ispinesib 0.026 | bafetinib -0.045 | [5] 0.03 | nilotinib 0.011 | [6] 0.024 | dasatinib 0.035 | [7] -0.013 | [8] 0.059 | [9] -0.025 | tipifarnib 0.015 | mubritinib 0.038

SYNJ1 (UniProt O43426)
inactive: [1] -0.039 | crizotinib 0.051 | [2] -0.014 | [3] -0.009 | duvelisib 0.095 | gandotinib -0.217 | tozasertib 0 | [4] -0.019 | doramapimod -0.038 | ispinesib -0.02 | bafetinib -0.017 | [5] 0.046 | nilotinib 0.001 | [6] -0.011 | dasatinib 0.037 | [7] 0.01 | [8] 0.044 | [9] 0.007 | tipifarnib 0.01 | mubritinib 0.082

TADA3 (UniProt O75528)
inactive: [1] -0.019 | crizotinib -0.031 | [2] 0.055 | [3] -0.082 | duvelisib 0.045 | gandotinib 0.003 | tozasertib -0.006 | [4] -0.003 | doramapimod 0.014 | ispinesib 0.054 | bafetinib -0.056 | [5] 0 | nilotinib -0.047 | [6] -0.004 | dasatinib -0.01 | [7] -0.03 | [8] 0.007 | [9] -0.004 | tipifarnib 0.027 | mubritinib 0

STMN3 (UniProt Q9NZ72)
inactive: [1] -0.054 | crizotinib -0.027 | [2] -0.048 | [3] -0.067 | duvelisib 0.021 | gandotinib 0.016 | tozasertib -0.011 | [4] -0.049 | doramapimod 0.038 | ispinesib 0.091 | bafetinib -0.024 | [5] -0.042 | nilotinib 0.083 | [6] -0.076 | dasatinib 0.054 | [7] -0.1 | [8] 0.045 | [9] -0.07 | tipifarnib 0.046 | mubritinib 0.034

STX6 (UniProt O43752)
inactive: [1] 0.038 | crizotinib 0.024 | [2] -0.002 | [3] -0.049 | duvelisib 0.052 | gandotinib 0.078 | tozasertib -0.009 | [4] 0.003 | doramapimod 0.007 | ispinesib -0.056 | bafetinib -0.057 | [5] 0.028 | nilotinib 0.062 | [6] -0.028 | dasatinib 0.009 | [7] -0.025 | [8] -0.033 | [9] -0.003 | tipifarnib -0.009 | mubritinib 0.049

SUMO3 isoform 2 (UniProt P55854)
inactive: [1] -0.1 | crizotinib -0.037 | [2] -0.106 | [3] 0.025 | duvelisib -0.096 | gandotinib 0.081 | tozasertib -0.081 | [4] -0.176 | doramapimod 0.036 | ispinesib -0.162 | bafetinib -0.048 | [5] -0.12 | nilotinib 0.056 | [6] -0.022 | dasatinib 0.17 | [7] -0.02 | [8] -0.025 | [9] -0.061 | tipifarnib 0.022 | mubritinib 0.04

SUPT4H1 (UniProt P63272)
inactive: [1] 0.084 | crizotinib 0.147 | [2] 0.096 | [3] -0.233 | duvelisib 0.081 | gandotinib 0.051 | tozasertib 0.093 | [4] 0.08 | doramapimod -0.104 | ispinesib 0.176 | bafetinib -0.017 | [5] 0.14 | nilotinib 0.018 | [6] -0.035 | dasatinib -0.084 | [7] 0.097 | [8] -0.023 | [9] 0.006 | tipifarnib -0.067 | mubritinib 0.006

TAPT1 (UniProt Q6NXT6)
inactive: [1] -0.024 | crizotinib 0.059 | [2] -0.047 | [3] -0.025 | duvelisib 0.002 | gandotinib 0.039 | tozasertib -0.006 | [4] -0.039 | doramapimod 0.044 | ispinesib 0.02 | bafetinib -0.038 | [5] -0.044 | nilotinib 0.004 | [6] -0.012 | dasatinib 0.022 | [7] -0.031 | [8] 0.014 | [9] 0.067 | tipifarnib 0.024 | mubritinib 0.04

SYNRG (UniProt Q9UMZ2)
inactive: [1] -0.013 | crizotinib -0.017 | [2] 0 | [3] 0.019 | duvelisib 0.084 | gandotinib -0.131 | tozasertib -0.025 | [4] 0.039 | doramapimod 0.034 | ispinesib 0.072 | bafetinib 0.002 | [5] 0.005 | nilotinib -0.053 | [6] -0.036 | dasatinib -0.017 | [7] -0.005 | [8] -0.018 | [9] -0.01 | tipifarnib -0.008 | mubritinib -0.033

TBC1D13 (UniProt Q9NVG8)
inactive: [1] 0.006 | crizotinib 0.036 | [2] 0.057 | [3] -0.047 | duvelisib 0.037 | gandotinib -0.019 | tozasertib -0.007 | [4] -0.019 | doramapimod -0.003 | ispinesib 0.055 | bafetinib -0.041 | [5] -0.029 | nilotinib -0.018 | [6] 0.013 | dasatinib 0.01 | [7] -0.009 | [8] 0.028 | [9] 0.044 | tipifarnib -0.001 | mubritinib 0.061

TAGLN2 isoform 2 (UniProt P37802)
inactive: [1] 0.015 | crizotinib 0.013 | [2] 0.053 | [3] -0.1 | duvelisib 0.011 | gandotinib -0.029 | tozasertib 0.022 | [4] 0.021 | doramapimod -0.037 | ispinesib 0.057 | bafetinib -0.027 | [5] 0.034 | nilotinib 0.015 | [6] -0.052 | dasatinib -0.031 | [7] 0.008 | [8] 0.054 | [9] 0 | tipifarnib -0.038 | mubritinib 0.04
